According to patent publication US7078566B2, “Salts of guanidine derivatives and pharmaceutical preparations consisting thereof” (Biosphinks Aktiengesellschaft, priority 2001, dated 2006):
Some entries share one result that the patent states for a list of compounds.

Legend:
[1] = tested on: nude mice (strain: Swiss, Nu/Nu); test: Physiological tolerability after subcutaneous application (tissue damage after 24 h); details: 0.1 ml subcutaneous
Procedure: Aliquots of 0.1 ml each were administered to 3 nude mice (strain: Swiss, Nu/Nu) by subcutaneous application. After 24 h, the degree of tissue damage was recorded. The results are shown in Table 4, in which no visible damage=−, reddening=+, edemas=++, and necroses=+++.

[2] = Solubility of C11AG salts in potassium phosphate buffer (crystal formation by microscope); details: potassium phosphate buffer pH 7.4, 4 mM C11AG salt

Molecule | concentration up to which well-tolerated / no damage [1] | phosphate concentration at which the salt precipitates (forms insoluble phosphates) [2]
undecylideneaminoguanidine pelargonate | ≥ 120000 µM | > 1,000 mM
CCCCCCCCCCC=NNC(=N)N [Oenanthate, undecylideneaminoguanidine oenanthate] | ≥ 120000 µM | 
